# Primary screen of a compound library

By UniProt entry, the sequences of proteins in these tests, tags left out.
UniProt E9BF75, entry or part of it: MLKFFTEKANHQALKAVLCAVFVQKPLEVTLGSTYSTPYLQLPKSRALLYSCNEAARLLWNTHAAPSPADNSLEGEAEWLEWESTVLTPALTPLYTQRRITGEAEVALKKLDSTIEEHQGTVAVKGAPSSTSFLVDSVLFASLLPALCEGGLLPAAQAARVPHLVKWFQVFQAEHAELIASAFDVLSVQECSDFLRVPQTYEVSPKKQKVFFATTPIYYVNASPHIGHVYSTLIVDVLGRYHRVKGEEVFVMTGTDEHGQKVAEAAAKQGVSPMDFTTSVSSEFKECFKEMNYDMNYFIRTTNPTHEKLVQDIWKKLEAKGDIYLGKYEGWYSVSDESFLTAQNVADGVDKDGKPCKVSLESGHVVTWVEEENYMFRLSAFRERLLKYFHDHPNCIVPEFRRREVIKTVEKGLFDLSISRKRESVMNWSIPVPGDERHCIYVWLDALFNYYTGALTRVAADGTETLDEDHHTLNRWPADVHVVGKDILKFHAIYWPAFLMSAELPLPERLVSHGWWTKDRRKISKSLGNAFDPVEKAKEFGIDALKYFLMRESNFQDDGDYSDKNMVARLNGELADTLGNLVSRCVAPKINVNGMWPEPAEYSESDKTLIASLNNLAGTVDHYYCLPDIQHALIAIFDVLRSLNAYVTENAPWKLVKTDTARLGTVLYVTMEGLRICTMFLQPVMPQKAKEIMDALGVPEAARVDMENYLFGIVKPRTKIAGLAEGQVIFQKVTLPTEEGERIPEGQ

Measurements from “University of Dundee, Small-Polar-MMV Screening Library” (2021), ChEMBL document CHEMBL3988442.

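Methionyl-tRNA synthetase (putative), Leishmania donovani (UniProt E9BF75). Primary screen of methionyl-tRNA synthetase; the read-out is not stated. The test concentration is not given. Values are per cent inhibition. About 68,000 compounds were tested under these conditions; 0.035% (about 24) showed 50% or more at least once.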

All values are in %. The record does not define 0% and 100%; most values in the screen are far below 50% and negative numbers occur (in some assays of this library far below -100). The compounds are a random part of those screened.

| Compound | inhibition |
|---|---|
| `CCN(Cc1ccncc1)C(=O)c1cn(CC2CCCNC2)nn1` (centres unmarked) | 11.34 |
| `CCOc1ccccc1CN(CC)Cc1ccc(S(C)(=O)=O)cc1` | 7.326 |
| `Cn1cc(CCNC(=O)NC2CCS(=O)(=O)C2)cn1` (centres unmarked) | 10.62 |
| `NC(=O)COc1ccc(C(=O)NCCc2ccco2)cc1` | 8.152 |
| `Cn1nnc2cc(C(=O)NS(=O)(=O)c3cccc(C#N)c3)ccc21` | 14.09 |
| `COc1ccc(CNCCC(=O)N2CCc3sccc3C2)cc1O` | 6.832 |
| `O=C(NCc1ccc(C(=O)N2CCCC2)cc1)c1cn2c(n1)CNCC2` | 9.317 |
| `O=C1CN(Cc2nnc(-c3ccc(Br)o3)o2)CCN1` | 4.425 |
| `CCC[C@@H]1CN(Cc2ccccc2OC(F)(F)F)C[C@H]1NC(C)=O` | 14.37 |
| `O=C(C1CCC1)N1CCC(=O)N(C2CC2)Cc2cc(F)ccc21` | 4.11 |
| `O=C(NCCSCc1ccc(Br)s1)C1CCCN(c2cnccn2)C1` (centres unmarked) | 12.24 |
| `CC(C)c1nccn1C1CCCN(C(=O)CCc2cscn2)C1` (centres unmarked) | 17.14 |
| `CN(C)c1nc2ncc(Cl)cc2cc1C#N` | 11.86 |
| `COCCNC(=O)[C@H]1C[C@@H]2CCN(CCc3ccccc3)C[C@@H]2O1` | 13.19 |
| `Cc1c(Br)cccc1CSc1nnc(CO)n1C` | 11.15 |
| `Cc1nccn1-c1ccc(CNC(=O)c2ccc([S+](C)[O-])cc2)cn1` (centres unmarked) | 15.78 |
| `O=C(O)c1cc(-c2cncnc2)cc(S(=O)(=O)N2CCCCCC2)c1` | 11.31 |
| `CC(NC(=O)N1CCCN(C)CC1)c1ccc(S(N)(=O)=O)cc1` (centres unmarked) | 12.04 |
| `O=C(NC[C@H]1OC[C@@H]2CCN(Cc3ccco3)C[C@@H]21)c1ccsc1` | 18.5 |
| `Cc1nc2ncc3c(=O)n(C)ccc3n2n1` | 19.78 |
| `COCCn1ccc2c(NC(=O)c3n[nH]c4c3CCC4)cccc21` | 18.06 |
| `Cc1cc(NCCCNS(C)(=O)=O)nc2ccccc12` | 8.967 |
| `N#CCCN(Cc1ccccn1)C(=O)c1cccc(CN2CCCC2)c1` | 6.443 |
| `CC(=O)N1CCOC2(CCCN(Cc3ccc(Cl)c(C(F)(F)F)c3)C2)C1` (centres unmarked) | 16.3 |
| `CO[C@@H]1CN(c2ccccc2)S(=O)(=O)[C@@]12CCN(C(C)=O)C2` | 10.68 |
| `CN1C[C@@H]2CN(C(=O)C3CCOC3)C[C@@H]2C1=O` (some centres unmarked) | -1.031 |
| `Cc1c(C(N)=O)sc2nc(C(F)(F)F)ccc12` | 13.94 |
| `Cc1nc(C(=O)N2CCC(Cc3cnc4[nH]ccc4c3)C2)co1` (centres unmarked) | 2.448 |
| `Cc1nc(Nc2nnc(C)s2)cc(C2CCCN2C(C)C)n1` (centres unmarked) | 2.589 |
| `O=C(NCc1cccc(F)c1F)c1cc(CN2CCCC(O)C2)on1` (centres unmarked) | 3.559 |
| `CC(NC(=O)N(C)C1CC1)c1ccc(Oc2cccnc2)c(F)c1` (centres unmarked) | 17.54 |
| `c1ccc(-c2nccc(CNC3CCc4ncnn4C3)n2)cc1` (centres unmarked) | 21.94 |
| `Cc1nc(C)c(C(=O)NCc2nc3cccc(C)c3n2C)o1` | 14.78 |
| `O=C(NCCC1=CCCCC1)c1n[nH]c2c1CCCC2` | 4.636 |
| `CC(C)C(C)N(C)Cc1nnc(-c2ccco2)o1` (centres unmarked) | 6.832 |
| `CSc1ncccc1C(=O)NCCC(O)c1ccco1` (centres unmarked) | 8.633 |
| `O=C(O)c1c[nH]c2cc(NS(=O)(=O)c3cc(F)ccc3Cl)ccc12` | 9.659 |
| `Cc1noc(C)c1CNCC1Cn2nncc2CO1` (centres unmarked) | 12.47 |
| `COCc1c(Br)cccc1NC(=O)N(C)CCO` | 19.15 |
| `O=C(c1ccccn1)N1CCc2ncnc(-c3ccncc3)c2CC1` | 8.197 |
| `c1ccc(-c2nc3c(c(NCCn4cccc4)n2)CCNCC3)nc1` | 32.03 |
| `O=C(Cn1cccn1)NCC1CCCN(Cc2ccccc2)C1` (centres unmarked) | 13.77 |
| `CC(=O)N1CCC2(CC1)c1ncc(-c3ccccc3)n1CCN2C` | 15.5 |
| `Cc1nc2c(c(NC(C)C)n1)CCN(C(=O)c1cc[nH]n1)CC2` | 3.833 |
| `COc1ccccc1OCC(=O)NS(=O)(=O)c1cc(F)ccc1F` | 14.13 |
| `CCOC(=O)N1CCN(C(=O)Cn2ccc3ncccc3c2=O)CC1` | 16.01 |
| `CCCC(=O)N1CCC2(CC1)CN(Cc1cccc(C)n1)C(=O)CO2` | 15.74 |
| `O=C(N1CCCC1)N1CCc2onc(COc3cccnc3)c2C1` | 2.985 |
| `Cc1noc([C@@]23CCO[C@@H]2CCN(S(=O)(=O)c2cccnc2)C3)n1` | 15.06 |
| `CCc1ccc(C2COCCN2C(=O)Nc2ccc(C(N)=O)c(Cl)c2)o1` (centres unmarked) | 9.756 |
| `CC(OCC1CC1)C(=O)Nc1cccc(C(=O)Nc2ccccn2)c1` (centres unmarked) | 10.3 |
| `Cn1cc(C(=O)CC2CCCN2C(=O)c2c[nH]c3ccccc23)cn1` (centres unmarked) | 21.65 |
| `O=C(c1ccc(C(F)(F)F)cc1)N1C[C@@H](CN2CCCCC2)[C@@H](CO)C1` | 8.939 |
| `CCn1cc(CN2CCCN(C(=O)c3ccco3)CC2)cn1` | 23.2 |
| `CCOC(=O)CCNC(=O)N1CCN(c2nc3ccccc3n2C)CC1` | 16.67 |
| `CCN(CC)c1ccc2ccc(C(=O)N(C)C)cn12` | 31.88 |
| `Cc1cnn(C2CN(Cc3nc4cc(Cl)ccc4n3C)C2)c1` | 16.67 |
| `Cc1cnn(CC2CCCCN2C(=O)c2ccc3[nH]cnc3c2)c1` (centres unmarked) | 16.02 |
| `Cn1ccc(C(=O)NCc2ccc(N3CCCC3)nc2)cc1=O` | 16.78 |
| `Cn1ccnc1SCCNc1cc(N2CCOCC2)ncn1` | 10.66 |
| `c1ccc(CN2CCC3(CC2)CN(c2ccccn2)CCO3)nc1` | 9.677 |
| `O=C(c1c[nH]nn1)N1CCN(C(c2ccccc2)C(F)(F)F)CC1` (centres unmarked) | 1.099 |
| `O=C(c1ccco1)N1Cc2cnn(CC3CC3)c2C(COCC2CC2)C1` (centres unmarked) | 4.372 |
| `CCN1C(=O)C2(CCOCC2)c2cc(NC(=O)c3cnoc3C)ccc21` | -22.04 |
| `COC[C@@H]1CCCN1C(=O)c1cc(-c2cccc(OC)c2)n[nH]1` | 20.07 |
| `O=C1CC2(CCN(c3nncs3)C2)CN1c1cncnc1` (centres unmarked) | 11.68 |
| `O=C(CSCc1ccncc1)N(Cc1ccsc1)C1CC1` | 10.57 |
| `COc1ccc(-c2nccn2C[C@@H]2CCCN3CCCC[C@H]23)cc1` | 5.867 |
| `O=C(Nc1ccccn1)C1CCN(C(=O)COc2ccccc2F)C1` (centres unmarked) | 1.286 |
| `Cn1cc(C2(C)CN(C(=O)Nc3ccccc3F)CCO2)cn1` (centres unmarked) | 3.014 |
| `O=C(CS(=O)(=O)c1ccccn1)NC1CCCc2ccccc21` (centres unmarked) | 8.933 |
| `Cn1cnc(S(=O)(=O)N2C[C@@H]3CC[C@H](C2)N(Cc2ccccn2)C3)c1` | 12.04 |
| `N#Cc1cccnc1OC1CCN(S(=O)(=O)c2ccc(Br)cc2)CC1` | 12.11 |
| `COCCNc1nc2c(c(NCc3ccncc3)n1)CCNCC2` | 17.75 |
| `Cc1cccc(N2CCOC(C(=O)O)C2)c1` (centres unmarked) | 20 |
| `COCCN1C(=O)C[C@@H]2[C@H]1CCN2C(=O)COc1ccccc1` | 15.02 |
| `O=C(c1cccnc1)N1CCOCC2(CCN(c3ncccn3)C2)C1` (centres unmarked) | 11.68 |
| `CCN(CC)C(=O)Cn1ccc2cc(NC(C)=O)ccc21` | 19.13 |
| `Cc1ncc2c(n1)CN(CCCc1ccccc1)CC2` | 28.92 |

For reference, 6 entries once more:

{"compound": "CCN(CC)c1ccc2ccc(C(=O)N(C)C)cn12", "inhibition": 31.88}
{"compound": "CN1C[C@@H]2CN(C(=O)C3CCOC3)C[C@@H]2C1=O", "stereo": "some centres unmarked", "inhibition": -1.031}
{"compound": "O=C(NCc1ccc(C(=O)N2CCCC2)cc1)c1cn2c(n1)CNCC2", "inhibition": 9.317}
{"compound": "Cc1nc2ncc3c(=O)n(C)ccc3n2n1", "inhibition": 19.78}
{"compound": "CC(NC(=O)N(C)C1CC1)c1ccc(Oc2cccnc2)c(F)c1", "stereo": "centres unmarked", "inhibition": 17.54}
{"compound": "CCOc1ccccc1CN(CC)Cc1ccc(S(C)(=O)=O)cc1", "inhibition": 7.326}